{
  "source": "the supplement of paper PMC8728848",
  "binders": {"B1": {"name": "PX14375A-pdi-503-28-503 (Parabacteroides distasonis) (protein)", "chain": "PLGSPEAGDISEERQAFLRLTAVYSVMKDFRYTWSMQCFGDVLSNDATYSGSSNDAQTFTLLENYQYQADHTEILNKYRYSYQCINKANLFIRDMEMADDALFSKYDKEQMIGEAKFIRAYTYFELVKTFGGVPCYTGVLDLDHERLGRASVEEIYSVIEQDLNDAVSVLPKKSEVANYESSYAGRITKGAAIAMQTRIYLYEKKYDEVKKAFEKFQNECGGEYSLVAPEDYTWQFSLDGEHCSSSILEVNMYNSSTQSSYNVNNGNRHVLMSMPRNMTIGFGCAQPTQALADAYDAEGDVIRKKTTLLSTEEAIEIETAAKGDVAPVTDDRTGWYNRKLYLAPGQREENRGNNQPTNLRLIRLAEVYLNYAEACYFSGDIANAQKYLNEVRSHVNLAPKNHTGSQLFEDIMNERHLEFGMEGFRFFDVVRVGWGEKVFNGTKKAEFGAKTPFSAGAEVLPIPQTEIDISDGLITN"}},
  "assay_in_all_cases": "glycan array binding signal (z-score within array); higher = stronger binding",
  "conditions_in_all_cases": "glycan notation: IUPAC condensed, linker removed",
  "key": {"Gal6S(b1-4)Glc6S": {"target": "Gal6S(b1-4)Glc6S", "in_short": "(§1)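 The Consortium for Functional Glycomics database supplied 3228 glycan arrays, of which those lacking an available protein sequence were dropped. The binding signal, a within-array Z-score, was averaged across arrays of the same protein sequence and across linkers. Negative scores can be read as non-binding.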"}, "Gal6S(b1-4)GlcNAc": {"target": "Gal6S(b1-4)GlcNAc", "in_short": "as §1"}, "Gal6S(b1-4)GlcNAc6S": {"target": "Gal6S(b1-4)GlcNAc6S", "in_short": "as §1"}, "GalNAc(a1-3)Gal": {"target": "GalNAc(a1-3)Gal", "in_short": "as §1"}, "GalNAc(a1-3)GalNAc": {"target": "GalNAc(a1-3)GalNAc", "in_short": "as §1"}, "[1]": {"target": "GalNAc(a1-3)GalNAc(b1-3)Gal(a1-4)Gal(b1-4)Glc", "in_short": "as §1"}, "[2]": {"target": "GalNAc(a1-3)GalNAc(b1-3)Gal(a1-4)Gal(b1-4)GlcNAc", "in_short": "as §1"}, "GalNAc(b1-3)Gal": {"target": "GalNAc(b1-3)Gal", "in_short": "as §1"}, "[3]": {"target": "GalNAc(b1-3)Gal(a1-4)Gal(b1-4)GlcNAc", "in_short": "as §1"}, "[4]": {"target": "GalNAc(b1-3)Gal(a1-4)Gal(b1-4)GlcNAc(b1-3)Gal(b1-4)Glc", "in_short": "as §1"}, "[5]": {"target": "GalNAc(b1-3)Gal(a1-6)Gal(b1-4)Glc", "in_short": "as §1"}, "GalNAc(b1-3)GalNAc": {"target": "GalNAc(b1-3)GalNAc", "in_short": "as §1"}, "GalNAc(b1-3)GlcNAc": {"target": "GalNAc(b1-3)GlcNAc", "in_short": "as §1"}, "GalNAc(b1-4)Gal(b1-4)Glc": {"target": "GalNAc(b1-4)Gal(b1-4)Glc", "in_short": "as §1"}, "GalNAc(b1-4)GlcNAc": {"target": "GalNAc(b1-4)GlcNAc", "in_short": "as §1"}, "[6]": {"target": "GalNAc(b1-4)GlcNAc(b1-2)Man", "in_short": "as §1"}, "[7]": {"target": "GalNAc(b1-4)GlcNAc(b1-2)Man(a1-3)[GalNAc(b1-4)GlcNAc(b1-2)Man(a1-6)]Man(b1-4)GlcNAc(b1-4)GlcNAc", "in_short": "as §1"}, "[8]": {"target": "GalNAc(b1-4)GlcNAc(b1-3)GalNAc(b1-4)GlcNAc", "in_short": "as §1"}, "GalNAc(b1-4)GlcNAc6S": {"target": "GalNAc(b1-4)GlcNAc6S", "in_short": "as §1"}, "GalNAc(b1-6)GalNAc": {"target": "GalNAc(b1-6)GalNAc", "in_short": "as §1"}, "GalNAc3S(b1-4)GlcNAc": {"target": "GalNAc3S(b1-4)GlcNAc", "in_short": "as §1"}, "GalNAc3S(b1-4)GlcNAc3S": {"target": "GalNAc3S(b1-4)GlcNAc3S", "in_short": "as §1"}, "[9]": {"target": "GalNAc3S(b1-4)[Fuc(a1-3)]GlcNAc", "in_short": "as §1"}, "GalNAc4S6S(b1-4)GlcNAc": {"target": "GalNAc4S6S(b1-4)GlcNAc", "in_short": "as §1"}, "GalNAc6S(b1-4)GlcNAc": {"target": "GalNAc6S(b1-4)GlcNAc", "in_short": "as §1"}, "Glc(a1-4)Glc": {"target": "Glc(a1-4)Glc", "in_short": "as §1"}, "[10]": {"target": "Glc(a1-4)Glc(a1-4)Glc(a1-4)Glc", "in_short": "as §1"}, "Glc(a1-6)Glc(a1-6)Glc": {"target": "Glc(a1-6)Glc(a1-6)Glc", "in_short": "as §1"}, "[11]": {"target": "Glc(a1-6)Glc(a1-6)Glc(a1-6)Glc", "in_short": "as §1"}, "Glc(b1-4)Glc": {"target": "Glc(b1-4)Glc", "in_short": "as §1"}, "Glc(b1-6)Glc": {"target": "Glc(b1-6)Glc", "in_short": "as §1"}, "GlcA(b1-3)Gal": {"target": "GlcA(b1-3)Gal", "in_short": "as §1"}, "GlcA(b1-3)GlcNAc": {"target": "GlcA(b1-3)GlcNAc", "in_short": "as §1"}, "GlcA(b1-6)Gal": {"target": "GlcA(b1-6)Gal", "in_short": "as §1"}, "[12]": {"target": "GlcA3S(b1-3)Gal(b1-4)GlcNAc(b1-2)Man", "in_short": "as §1"}, "[13]": {"target": "GlcA3S(b1-3)Gal(b1-4)GlcNAc(b1-3)Gal(b1-4)Glc", "in_short": "as §1"}, "[14]": {"target": "GlcNAc(a1-3)Gal(b1-4)GlcNAc", "in_short": "as §1"}},
  "note": "Some of the results follow.",
  "data": [
    {"binder": "B1", "values": [
      {"measurement": "glycan array binding signal (z-score)", "setting": "Gal6S(b1-4)Glc6S", "result": -0.419},
      {"measurement": "glycan array binding signal (z-score)", "setting": "Gal6S(b1-4)GlcNAc", "result": 0.041},
      {"measurement": "glycan array binding signal (z-score)", "setting": "Gal6S(b1-4)GlcNAc6S", "result": 0.069},
      {"measurement": "glycan array binding signal (z-score)", "setting": "GalNAc(a1-3)Gal", "result": -0.64},
      {"measurement": "glycan array binding signal (z-score)", "setting": "GalNAc(a1-3)GalNAc", "result": 0.209},
      {"measurement": "glycan array binding signal (z-score)", "setting": "[1]", "result": -0.395},
      {"measurement": "glycan array binding signal (z-score)", "setting": "[2]", "result": -0.333},
      {"measurement": "glycan array binding signal (z-score)", "setting": "GalNAc(b1-3)Gal", "result": 0.566},
      {"measurement": "glycan array binding signal (z-score)", "setting": "[3]", "result": -0.93},
      {"measurement": "glycan array binding signal (z-score)", "setting": "[4]", "result": -0.048},
      {"measurement": "glycan array binding signal (z-score)", "setting": "[5]", "result": -0.564},
      {"measurement": "glycan array binding signal (z-score)", "setting": "GalNAc(b1-3)GalNAc", "result": -0.304},
      {"measurement": "glycan array binding signal (z-score)", "setting": "GalNAc(b1-3)GlcNAc", "result": -0.667},
      {"measurement": "glycan array binding signal (z-score)", "setting": "GalNAc(b1-4)Gal(b1-4)Glc", "result": 0.328},
      {"measurement": "glycan array binding signal (z-score)", "setting": "GalNAc(b1-4)GlcNAc", "result": -0.391},
      {"measurement": "glycan array binding signal (z-score)", "setting": "[6]", "result": -0.047},
      {"measurement": "glycan array binding signal (z-score)", "setting": "[7]", "result": 0.156},
      {"measurement": "glycan array binding signal (z-score)", "setting": "[8]", "result": -0.282},
      {"measurement": "glycan array binding signal (z-score)", "setting": "GalNAc(b1-4)GlcNAc6S", "result": 0.201},
      {"measurement": "glycan array binding signal (z-score)", "setting": "GalNAc(b1-6)GalNAc", "result": 0.361},
      {"measurement": "glycan array binding signal (z-score)", "setting": "GalNAc3S(b1-4)GlcNAc", "result": -1},
      {"measurement": "glycan array binding signal (z-score)", "setting": "GalNAc3S(b1-4)GlcNAc3S", "result": -0.318},
      {"measurement": "glycan array binding signal (z-score)", "setting": "[9]", "result": 0.029},
      {"measurement": "glycan array binding signal (z-score)", "setting": "GalNAc4S6S(b1-4)GlcNAc", "result": 0.215},
      {"measurement": "glycan array binding signal (z-score)", "setting": "GalNAc6S(b1-4)GlcNAc", "result": -0.507},
      {"measurement": "glycan array binding signal (z-score)", "setting": "Glc(a1-4)Glc", "result": -0.369},
      {"measurement": "glycan array binding signal (z-score)", "setting": "[10]", "result": -0.695},
      {"measurement": "glycan array binding signal (z-score)", "setting": "Glc(a1-6)Glc(a1-6)Glc", "result": -0.184},
      {"measurement": "glycan array binding signal (z-score)", "setting": "[11]", "result": -0.04},
      {"measurement": "glycan array binding signal (z-score)", "setting": "Glc(b1-4)Glc", "result": -0.675},
      {"measurement": "glycan array binding signal (z-score)", "setting": "Glc(b1-6)Glc", "result": -0.442},
      {"measurement": "glycan array binding signal (z-score)", "setting": "GlcA(b1-3)Gal", "result": -0.131},
      {"measurement": "glycan array binding signal (z-score)", "setting": "GlcA(b1-3)GlcNAc", "result": 0.966},
      {"measurement": "glycan array binding signal (z-score)", "setting": "GlcA(b1-6)Gal", "result": 0.643},
      {"measurement": "glycan array binding signal (z-score)", "setting": "[12]", "result": 0.254},
      {"measurement": "glycan array binding signal (z-score)", "setting": "[13]", "result": -0.48},
      {"measurement": "glycan array binding signal (z-score)", "setting": "[14]", "result": 0.178}
    ]}
  ]
}
